PMC3006391

By UniProt entry, the sequences of proteins in these tests, tags left out. Where a name states a change or a piece, a line headed by the entry shows the natural chain unless it says otherwise. Residues count along the entry.
UniProt P25705, residues 44-553: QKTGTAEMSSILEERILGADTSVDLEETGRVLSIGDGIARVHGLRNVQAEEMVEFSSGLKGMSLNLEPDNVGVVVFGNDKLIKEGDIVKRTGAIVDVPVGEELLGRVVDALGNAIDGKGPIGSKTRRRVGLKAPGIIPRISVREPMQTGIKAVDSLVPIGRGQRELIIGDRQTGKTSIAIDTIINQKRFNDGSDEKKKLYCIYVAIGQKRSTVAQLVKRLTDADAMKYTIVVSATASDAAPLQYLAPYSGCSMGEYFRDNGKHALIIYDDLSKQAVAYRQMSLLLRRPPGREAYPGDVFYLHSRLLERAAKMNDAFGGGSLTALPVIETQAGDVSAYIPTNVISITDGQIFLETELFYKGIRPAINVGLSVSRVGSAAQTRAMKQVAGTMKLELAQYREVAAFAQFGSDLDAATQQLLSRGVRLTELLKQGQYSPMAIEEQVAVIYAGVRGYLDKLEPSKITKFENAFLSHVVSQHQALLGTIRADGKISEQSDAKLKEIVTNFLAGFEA
UniProt O75964: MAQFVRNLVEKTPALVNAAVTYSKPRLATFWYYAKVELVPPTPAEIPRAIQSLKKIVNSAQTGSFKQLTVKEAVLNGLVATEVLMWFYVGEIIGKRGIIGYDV
UniProt P27824, residues 21-592: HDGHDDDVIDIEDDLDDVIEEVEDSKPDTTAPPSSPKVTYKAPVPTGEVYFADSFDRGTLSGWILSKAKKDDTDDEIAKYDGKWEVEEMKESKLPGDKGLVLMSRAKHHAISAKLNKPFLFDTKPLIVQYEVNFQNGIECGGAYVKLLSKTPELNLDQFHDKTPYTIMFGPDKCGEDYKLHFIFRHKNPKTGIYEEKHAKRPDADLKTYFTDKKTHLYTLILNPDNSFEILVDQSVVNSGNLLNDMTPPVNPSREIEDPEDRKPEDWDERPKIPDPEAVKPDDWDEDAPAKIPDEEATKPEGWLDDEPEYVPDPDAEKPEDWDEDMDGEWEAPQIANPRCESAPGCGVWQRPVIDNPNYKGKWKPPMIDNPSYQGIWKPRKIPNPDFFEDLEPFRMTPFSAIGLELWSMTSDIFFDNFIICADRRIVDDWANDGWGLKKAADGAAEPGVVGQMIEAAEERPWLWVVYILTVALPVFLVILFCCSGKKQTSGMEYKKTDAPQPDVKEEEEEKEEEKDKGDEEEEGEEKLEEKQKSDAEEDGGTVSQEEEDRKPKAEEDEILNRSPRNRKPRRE
UniProt O43169: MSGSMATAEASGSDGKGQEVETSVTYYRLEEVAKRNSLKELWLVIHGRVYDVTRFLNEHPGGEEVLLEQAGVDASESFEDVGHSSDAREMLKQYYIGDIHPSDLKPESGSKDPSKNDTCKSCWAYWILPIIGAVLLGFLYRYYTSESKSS
UniProt P13164: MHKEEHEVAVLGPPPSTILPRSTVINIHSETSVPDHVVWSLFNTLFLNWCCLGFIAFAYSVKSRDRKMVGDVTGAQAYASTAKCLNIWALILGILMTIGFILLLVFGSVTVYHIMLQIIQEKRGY
UniProt P51149: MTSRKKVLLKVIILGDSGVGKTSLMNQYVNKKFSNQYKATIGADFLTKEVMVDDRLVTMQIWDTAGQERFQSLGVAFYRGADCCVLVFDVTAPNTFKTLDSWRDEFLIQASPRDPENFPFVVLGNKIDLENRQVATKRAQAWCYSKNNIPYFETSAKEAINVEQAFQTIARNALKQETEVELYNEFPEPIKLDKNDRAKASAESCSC
UniProt P60468: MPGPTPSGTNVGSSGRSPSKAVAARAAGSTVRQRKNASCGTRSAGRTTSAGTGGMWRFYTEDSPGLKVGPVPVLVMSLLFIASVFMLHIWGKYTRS
UniProt Q15836: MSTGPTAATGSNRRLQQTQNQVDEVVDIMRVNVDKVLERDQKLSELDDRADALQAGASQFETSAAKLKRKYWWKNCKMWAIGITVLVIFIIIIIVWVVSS
UniProt O75396: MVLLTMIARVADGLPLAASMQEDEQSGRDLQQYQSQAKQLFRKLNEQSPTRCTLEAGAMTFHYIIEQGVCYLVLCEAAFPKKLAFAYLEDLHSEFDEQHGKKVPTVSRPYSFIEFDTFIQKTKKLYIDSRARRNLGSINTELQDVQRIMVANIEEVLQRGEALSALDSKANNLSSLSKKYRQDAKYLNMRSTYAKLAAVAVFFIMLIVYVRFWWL
UniProt P21796: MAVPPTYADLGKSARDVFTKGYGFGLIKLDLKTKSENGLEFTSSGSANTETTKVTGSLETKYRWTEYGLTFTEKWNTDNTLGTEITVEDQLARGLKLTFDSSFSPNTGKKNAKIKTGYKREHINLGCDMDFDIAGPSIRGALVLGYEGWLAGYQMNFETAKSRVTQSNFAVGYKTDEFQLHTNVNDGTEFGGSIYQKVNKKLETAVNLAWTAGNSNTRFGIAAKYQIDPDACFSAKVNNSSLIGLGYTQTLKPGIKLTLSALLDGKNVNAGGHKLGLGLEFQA

Target: TAP-Bcl-xL (UniProt Q07817)
Assay: affinity purification with mass spectrometry; Tandem Affinity Purification from CHAPS (1%) extracts of total membranes of HeLa cells stably expressing TAP-Bcl-xL: IgG agarose, TEV cleavage, calmodulin resin, EGTA elution; most abundant Coomassie bands cut and identified by LC-MS/MS; TAP-stop cells as control

Row | Substance | binding
1 | ATP synthase alpha subunit (from UniProt P25705-1 44-553) | binds
2 | ATP synthase beta subunit (from UniProt P06576 48-529) | binds
3 | ATP synthase g subunit (from UniProt O75964 1-103) | binds
4 | Calnexin (from UniProt P27824-1 21-592) | binds
5 | Cytochrome b5 type B (from UniProt O43169) | binds
6 | Interferon induced transmembrane protein 1 (from UniProt P13164 1-125) | binds
7 | Prohibitin 2 (from UniProt Q99623-1 1-299) | binds
8 | RAB7A, member RAS oncogene family (from UniProt P51149 1-207) | binds
9 | SEC61 beta subunit (from UniProt P60468 1-96) | binds
10 | Solute carrier family 3, member 2 (from UniProt P08195 1-529) | binds
11 | Vesicle associated membrane protein 3 (from UniProt Q15836 1-100) | binds
12 | Vesicle trafficking protein sec22b (from UniProt O75396 1-215) | binds
13 | Voltage-dependent anion channel 1 (from UniProt P21796 1-283) | binds

No constants are given. Whether binding was seen depends on the method and setting. Binding seen in cells or lysates may run through a third protein. These calls come from enrichment with a bait or labelling near it, and not all partners need be listed.
